The source of these data is the supplement of paper PMC11348887.

Where a name gives a salt, the structure may show the parent alone. The list shows a part of the results. Small differences around the control level are noise.

Common to all, as to details: 5 µM; treatment: days 7-14 after plating, readout day 21
Experiment [1] relates to hPSC-derived cortical neurons (WA09). The experiment can be described thus: nucleus area z-score vs screen plate; higher = larger nuclei (more mature).
The test system is the same in experiment [2]. The experiment can be described thus: total neurite length per nucleus (MAP2) z-score; higher = more neurite growth.
Experiment [3] shares this test system. The experiment can be described thus: nucleus roundness z-score vs screen plate; higher = rounder nuclei (more mature).
For experiment [4] the test system is unchanged. The experiment can be described thus: KCl-induced FOS+/EGR-1+ double-positive nuclei fraction z-score (KCl minus unstimulated); higher = stronger activity-induced IEG response.

Take `C=C1C(=O)O[C@@H]2/C=C(\C)CC/C=C(\C)CC[C@@H]12` [Costunolide]: the nucleus area z-score in experiment [1] was 0.592. Further, the “total neurite length per nucleus (z-score)” value in experiment [2] is -0.7. For the same compound, the nucleus roundness z-score in experiment [3] is -2.07. Also, in experiment [4], the “KCl-induced FOS+/EGR-1+ double-positive nuclei fraction z-score” value was -1.51.
Taken in the same sequence, the figures for `CN(C)[C@@H]1C(O)=C(C(N)=O)C(=O)[C@@]2(O)C(O)=C3C(=O)c4c(O)cccc4[C@@](C)(O)[C@H]3[C@H](O)[C@@H]12` [Oxytetracycline (Terramycin)] were 0.446, -0.728, -1.38 and -0.966.
`CC1(C)CCC(CN2CCN(c3ccc(C(=O)NS(=O)(=O)c4ccc(NCC5CCOCC5)c([N+](=O)[O-])c4)c(Oc4cnc5[nH]ccc5c4)c3)CC2)=C(c2ccc(Cl)cc2)C1` yielded a nucleus area z-score in experiment [1] of 1.89. The “total neurite length per nucleus (z-score)” value in experiment [2] came to 0.385. The compound further registered a nucleus roundness z-score in experiment [3] of -0.272. In experiment [4], the “KCl-induced FOS+/EGR-1+ double-positive nuclei fraction z-score” value was 0.0781.
Taken in the same sequence, the figures for `CCN(CC)C(=O)/C(C#N)=C/c1cc(O)c(O)c([N+](=O)[O-])c1` [Entacapone] were 0.491, -0.123, 0.00363 and -0.283.
As to `COc1ccc(CN2CCN(C(c3ccc(F)cc3)c3ccc(F)cc3)CC2)c(OC)c1OC` [Lomerizine HCl], the nucleus area z-score in experiment [1] is -1.36. Also, in experiment [2], the “total neurite length per nucleus (z-score)” value is -1.12. The same compound showed a nucleus roundness z-score in experiment [3] of -2.1. Besides, in experiment [4], the “KCl-induced FOS+/EGR-1+ double-positive nuclei fraction z-score” value was -1.21.
Taken in the same sequence, the figures for `Cc1cc(Cl)ccc1OCCCC(=O)NO` [Droxinostat] were -0.51, -0.0242, -0.142 and -0.328.
Taken in the same sequence, the figures for `CCOC(=O)C1=C(N)Oc2ccc(Br)cc2C1C(C#N)C(=O)OCC` (centres undefined) were 1.09, -0.691, -1.34 and -0.925.
On the same counts, the results for `O=C1CCc2c(ccc3ccccc23)O1` [Splitomicin] are 0.152, 0.548, 1.26 and 0.832.
As for `CC(C)[C@H](O)C(=O)N[C@@H](C)C(=O)N[C@@H]1C(=O)N(C)CCc2ccccc21`, the nucleus area z-score in experiment [1] was -0.91. In addition, the “total neurite length per nucleus (z-score)” value in experiment [2] was determined as 0.79. Also, in experiment [3], the nucleus roundness z-score was determined as 0.824. Further, the “KCl-induced FOS+/EGR-1+ double-positive nuclei fraction z-score” value in experiment [4] worked out at 0.609.
Taken in the same sequence, the figures for `CCC(C)n1ncn(-c2ccc(N3CCN(c4ccc(OCC5COC(Cn6cncn6)(c6ccc(Cl)cc6Cl)O5)cc4)CC3)cc2)c1=O` (centres undefined) [Itraconazole] were 0.08, 0.158, 0.76 and 0.139.
Turning to `O=C(/C=C/c1cncc(F)c1)c1c(-c2ccccc2)c2cc(Cl)ccc2[nH]c1=O`, in experiment [1], the nucleus area z-score was -16.7. In addition, the “total neurite length per nucleus (z-score)” value in experiment [2] was -5.31. In experiment [3], the nucleus roundness z-score was -16.4. For the same compound, in experiment [4], the “KCl-induced FOS+/EGR-1+ double-positive nuclei fraction z-score” value is -0.278.
Compound `COc1cc2c(cc1Cc1cccc(Cl)c1F)c(=O)c(C(=O)O)cn2[C@H](CO)C(C)C` [Elvitegravir (GS-9137_ JTK-303)] registered a nucleus area z-score in experiment [1] of 2.16. Moreover, the “total neurite length per nucleus (z-score)” value in experiment [2] was -1.12. The same compound returned a nucleus roundness z-score in experiment [3] of -0.302. Further, the “KCl-induced FOS+/EGR-1+ double-positive nuclei fraction z-score” value in experiment [4] is -0.342.
Taken in the same sequence, the figures for `CNC(=O)c1ccccc1Nc1cc(Nc2ccc(N3CCOCC3)cc2OC)ncc1C(F)(F)F` were -4.35, -2.87, -2.16 and -1.49.
Taken in the same sequence, the figures for `Cc1ccc(NC(=O)c2ccc(CN3CCN(C)CC3)cc2)cc1Nc1nccc(-c2cccnc2)n1` [Imatinib Mesylate (STI571)] were -0.0852, 0.856, 0.0199 and 1.21.
On the same counts, the results for `COc1ccc(C(=O)CC2(O)C(=O)Nc3c(Cl)ccc(Cl)c32)cc1` (centres undefined) are -0.893, -0.826, -1.41 and -1.17.
`CCCNC(=O)c1cn2ncnc(Nc3cc(C(=O)NC4CC4)ccc3C)c2c1C`: the nucleus area z-score in experiment [1] was determined as 0.901. Also, the “total neurite length per nucleus (z-score)” value in experiment [2] came out at 1.28. The nucleus roundness z-score in experiment [3] was -0.288. Besides, the “KCl-induced FOS+/EGR-1+ double-positive nuclei fraction z-score” value in experiment [4] is -0.0322.
Taken in the same sequence, the figures for `CN(C)CC/C=C1/c2ccccc2COc2ccc(CC(=O)O)cc21` [Olopatadine HCl] were 0.424, -0.0236, -0.342 and -0.087.
Taken in the same sequence, the figures for `CCc1oc2ccccc2c1C(=O)c1cc(Br)c(O)c(Br)c1` [Benzbromarone] were 0.287, 0.25, -0.0329 and 2.08.
On the same counts, the results for `Nc1c(CC(=O)O)cccc1C(=O)c1ccc(Br)cc1` [Bromfenac Sodium] are 0.144, 1.07, 0.624 and -0.18.
In experiment [1], `CC(C)OC(=O)C1=CN(C(=O)c2ccc(F)c(F)c2)CC(C)(C)c2c1[nH]c1ccccc21` registered a nucleus area z-score of 0.379. For the same compound, the “total neurite length per nucleus (z-score)” value in experiment [2] came out at 0.516. The nucleus roundness z-score in experiment [3] came out at 1.17. Also, the “KCl-induced FOS+/EGR-1+ double-positive nuclei fraction z-score” value in experiment [4] came out at 0.629.
Taken in the same sequence, the figures for `CCc1c2c(nc3ccc(OC(=O)N4CCC(N5CCCCC5)CC4)cc13)-c1cc3c(c(=O)n1C2)COC(=O)[C@]3(O)CC` [Irinotecan HCl Trihydrate] were -0.0916, -0.861, -0.66 and -0.811.
Taken in the same sequence, the figures for `O=C1c2cccc(O)c2C(=O)c2c(O)cc(CO)cc21` [Aloe-emodin] were 0.00514, 0.00733, 0.272 and 1.51.
On the same counts, the results for `Cc1cc(=O)n(-c2ccccc2)n1C` [Antipyrine] are -0.314, 0.252, 0.379 and -0.018.
For the compound `CN[C@@H](C)C(=O)N[C@H](C(=O)N1CCC[C@H]1C(=O)Nc1snnc1-c1ccccc1)C1CCCCC1`, in experiment [1], the nucleus area z-score came to 0.119. In addition, the “total neurite length per nucleus (z-score)” value in experiment [2] was -0.119. Besides, the nucleus roundness z-score in experiment [3] is 0.378. Moreover, the “KCl-induced FOS+/EGR-1+ double-positive nuclei fraction z-score” value in experiment [4] was 1.53.
Taken in the same sequence, the figures for `C#C[C@]1(O)CC[C@H]2[C@@H]3CCC4=CC(=O)CC[C@@H]4[C@H]3CC[C@@]21C` [Norethindrone] were -0.341, 0.0263, -0.225 and -0.605.
Consider `C[C@@H]1[C@H](O)[C@@H](C)/C=C/C=C/C=C/C=C/C=C/C=C/C=C/[C@H](O[C@@H]2O[C@H](C)[C@@H](O)[C@H](N)[C@@H]2O)C[C@@H]2O[C@](O)(C[C@@H](O)C[C@@H](O)[C@H](O)CC[C@@H](O)C[C@@H](O)CC(=O)O[C@H]1C)C[C@H](O)[C@H]2C(=O)O` [Amphotericin B], for which, in experiment [1], the nucleus area z-score is 0.142. For the same compound, the “total neurite length per nucleus (z-score)” value in experiment [2] came out at 0.396. Moreover, the nucleus roundness z-score in experiment [3] was found to be 0.152. Further, the “KCl-induced FOS+/EGR-1+ double-positive nuclei fraction z-score” value in experiment [4] is 0.649.
